Paper PMC12541429
No constants are given. Whether binding was seen depends on the method and setting. In cells and extracts the contact can be indirect. Some binding calls cover weakened binding; strength is not graded here. Where a sequence is shown, tags or fusion partners need not be part of it.

T1: GFP-RSPH3B expressed in HEK293T cells (mouse) (UniProt Q9DA80)
T1 sequence: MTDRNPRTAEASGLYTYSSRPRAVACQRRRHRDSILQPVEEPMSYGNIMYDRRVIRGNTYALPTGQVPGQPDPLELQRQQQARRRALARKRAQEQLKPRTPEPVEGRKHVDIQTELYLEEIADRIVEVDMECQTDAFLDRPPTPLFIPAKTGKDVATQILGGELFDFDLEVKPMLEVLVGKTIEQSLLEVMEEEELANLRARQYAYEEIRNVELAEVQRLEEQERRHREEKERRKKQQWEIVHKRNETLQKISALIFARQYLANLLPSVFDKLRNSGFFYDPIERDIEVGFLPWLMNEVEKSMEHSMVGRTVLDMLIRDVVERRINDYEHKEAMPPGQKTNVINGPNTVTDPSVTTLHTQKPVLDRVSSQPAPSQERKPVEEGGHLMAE

T2: FLAG-tagged AK8 expressed in HEK293T cells (mouse) (UniProt Q32M07)
T2 sequence: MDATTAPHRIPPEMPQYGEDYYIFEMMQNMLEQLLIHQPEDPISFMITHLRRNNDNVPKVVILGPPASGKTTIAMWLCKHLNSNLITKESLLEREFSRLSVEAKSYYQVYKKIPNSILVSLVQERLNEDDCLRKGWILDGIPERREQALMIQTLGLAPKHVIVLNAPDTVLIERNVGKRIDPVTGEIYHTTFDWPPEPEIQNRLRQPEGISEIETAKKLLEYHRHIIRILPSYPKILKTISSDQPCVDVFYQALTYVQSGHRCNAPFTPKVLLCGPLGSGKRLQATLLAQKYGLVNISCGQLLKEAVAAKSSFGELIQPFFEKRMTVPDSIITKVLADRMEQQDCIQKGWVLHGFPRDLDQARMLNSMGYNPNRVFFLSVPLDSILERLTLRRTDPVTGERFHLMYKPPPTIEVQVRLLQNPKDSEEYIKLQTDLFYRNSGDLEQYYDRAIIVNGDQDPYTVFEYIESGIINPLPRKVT


Assays:
[1] = molecular target: T1, GFP-RSPH3B expressed in HEK293T cells (mouse); assay: co-IP; GFP-RSPH3B precipitated with anti-GFP beads from HEK293T exogenously expressing the indicated proteins (AK8 with or without EFCAB10); high-salt lysis buffer (1% NP-40, 500 mM NaCl, 50 mM Hepes, 5 mM EDTA, pH 7.8), 4 h at 4 °C
[2] = molecular target: T2, FLAG-tagged AK8 expressed in HEK293T cells (mouse); assay: co-IP; GFP-EFCAB10 and FLAG-tagged proteins coexpressed in HEK293T; anti-FLAG agarose beads, 4 h at 4 °C; high-salt lysis buffer (1% NP-40, 500 mM NaCl, 50 mM Hepes, 5 mM EDTA, pH 7.8); blots with GFP and FLAG antibodies

binding [1] | binding [2] | Binder
binds | – | EFCAB10 coexpressed with GFP-RSPH3B and AK8 in HEK293T cells (Fig. 4K) (protein, UniProt Q9D581 1-132) MEPVADRELQAKLYLERHRIMELLNQLTSFLLFARPKKPREYLISLLERLRVAKATHVAFPYFMDNSNTVSMFEMMDMAGRGCISFVQYKEALKNLGLCTADEVLNDDGHIITLDTFRDEMNKRMEKMWSMF
– | binds | GFP-EFCAB10 expressed in HEK293T cells (protein, UniProt Q9D581 1-132) MEPVADRELQAKLYLERHRIMELLNQLTSFLLFARPKKPREYLISLLERLRVAKATHVAFPYFMDNSNTVSMFEMMDMAGRGCISFVQYKEALKNLGLCTADEVLNDDGHIITLDTFRDEMNKRMEKMWSMF
binds | – | AK8 coexpressed with GFP-RSPH3B in HEK293T cells (Fig. 4K) (protein, UniProt Q32M07 1-479) MDATTAPHRIPPEMPQYGEDYYIFEMMQNMLEQLLIHQPEDPISFMITHLRRNNDNVPKVVILGPPASGKTTIAMWLCKHLNSNLITKESLLEREFSRLSVEAKSYYQVYKKIPNSILVSLVQERLNEDDCLRKGWILDGIPERREQALMIQTLGLAPKHVIVLNAPDTVLIERNVGKRIDPVTGEIYHTTFDWPPEPEIQNRLRQPEGISEIETAKKLLEYHRHIIRILPSYPKILKTISSDQPCVDVFYQALTYVQSGHRCNAPFTPKVLLCGPLGSGKRLQATLLAQKYGLVNISCGQLLKEAVAAKSSFGELIQPFFEKRMTVPDSIITKVLADRMEQQDCIQKGWVLHGFPRDLDQARMLNSMGYNPNRVFFLSVPLDSILERLTLRRTDPVTGERFHLMYKPPPTIEVQVRLLQNPKDSEEYIKLQTDLFYRNSGDLEQYYDRAIIVNGDQDPYTVFEYIESGIINPLPRKVT
